Values quoted from earlier work, collected in patent US9072775B2, “Fluorescent emulsions for optical imaging” (priority 2007, dated 2015).
Some results were stated once for a whole list of compounds, not compound by compound. For at least one compound, name, drawing or mass did not settle the structure.

Conditions: formulated in water or in an aqueous buffer; absorb and emit between 640 and 900 nm; to our knowledge; cited from earlier work

Structure (SMILES): CCN1C(=CC=CC=CC=CC2=[N+](CCCCCC(=O)O)c3ccc(S(=O)(=O)O)cc3C2(C)C)C(C)(C)c2cc(S(=O)(=O)[O-])ccc21 [Cy7]
- quantum yields of fluorescence of commercial organic fluorophores: 10-15%
